In doi:10.1101/2023.08.10.552820:
No constants are given. Whether binding was seen depends on the method and setting. For part of these data: Binding seen in cells or lysates may run through a third protein. Some entries that bind do so weakly or less than the wild type. For part of these data: Sequences can lack the tags named with a protein.

Chains of the proteins cited; added tags and fusions are not shown. Residues count along the entry.
UniProt Q9FPH0, whole entry: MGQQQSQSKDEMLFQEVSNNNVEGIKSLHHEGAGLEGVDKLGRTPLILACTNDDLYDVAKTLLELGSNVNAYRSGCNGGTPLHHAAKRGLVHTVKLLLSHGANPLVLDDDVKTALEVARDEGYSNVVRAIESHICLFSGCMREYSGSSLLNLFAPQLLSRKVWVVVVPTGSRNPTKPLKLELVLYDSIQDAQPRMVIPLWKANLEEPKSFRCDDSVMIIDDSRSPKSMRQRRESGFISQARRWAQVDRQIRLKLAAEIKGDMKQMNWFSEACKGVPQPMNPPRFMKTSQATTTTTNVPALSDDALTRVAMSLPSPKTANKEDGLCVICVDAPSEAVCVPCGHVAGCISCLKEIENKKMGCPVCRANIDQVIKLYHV
UniProt Q9S9T7, whole entry: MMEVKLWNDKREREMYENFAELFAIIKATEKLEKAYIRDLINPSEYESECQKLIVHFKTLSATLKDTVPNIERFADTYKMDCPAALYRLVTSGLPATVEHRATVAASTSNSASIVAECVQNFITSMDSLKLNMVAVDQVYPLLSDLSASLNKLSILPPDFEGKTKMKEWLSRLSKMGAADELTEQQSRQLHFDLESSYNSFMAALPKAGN
UniProt Q4FE47, whole entry: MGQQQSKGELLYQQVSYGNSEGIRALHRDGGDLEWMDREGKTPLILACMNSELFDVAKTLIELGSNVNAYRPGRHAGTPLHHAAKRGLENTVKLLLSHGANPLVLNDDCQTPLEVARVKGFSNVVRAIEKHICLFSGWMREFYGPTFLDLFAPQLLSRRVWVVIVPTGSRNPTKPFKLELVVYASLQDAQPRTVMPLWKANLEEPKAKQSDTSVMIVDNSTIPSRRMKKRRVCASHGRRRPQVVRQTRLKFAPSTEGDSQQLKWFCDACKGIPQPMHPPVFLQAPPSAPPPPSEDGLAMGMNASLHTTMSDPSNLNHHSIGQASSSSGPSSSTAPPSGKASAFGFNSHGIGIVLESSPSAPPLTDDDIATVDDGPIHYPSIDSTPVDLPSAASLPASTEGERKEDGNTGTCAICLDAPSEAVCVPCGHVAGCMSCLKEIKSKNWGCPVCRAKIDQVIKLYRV
UniProt Q9FL28, 24-1173: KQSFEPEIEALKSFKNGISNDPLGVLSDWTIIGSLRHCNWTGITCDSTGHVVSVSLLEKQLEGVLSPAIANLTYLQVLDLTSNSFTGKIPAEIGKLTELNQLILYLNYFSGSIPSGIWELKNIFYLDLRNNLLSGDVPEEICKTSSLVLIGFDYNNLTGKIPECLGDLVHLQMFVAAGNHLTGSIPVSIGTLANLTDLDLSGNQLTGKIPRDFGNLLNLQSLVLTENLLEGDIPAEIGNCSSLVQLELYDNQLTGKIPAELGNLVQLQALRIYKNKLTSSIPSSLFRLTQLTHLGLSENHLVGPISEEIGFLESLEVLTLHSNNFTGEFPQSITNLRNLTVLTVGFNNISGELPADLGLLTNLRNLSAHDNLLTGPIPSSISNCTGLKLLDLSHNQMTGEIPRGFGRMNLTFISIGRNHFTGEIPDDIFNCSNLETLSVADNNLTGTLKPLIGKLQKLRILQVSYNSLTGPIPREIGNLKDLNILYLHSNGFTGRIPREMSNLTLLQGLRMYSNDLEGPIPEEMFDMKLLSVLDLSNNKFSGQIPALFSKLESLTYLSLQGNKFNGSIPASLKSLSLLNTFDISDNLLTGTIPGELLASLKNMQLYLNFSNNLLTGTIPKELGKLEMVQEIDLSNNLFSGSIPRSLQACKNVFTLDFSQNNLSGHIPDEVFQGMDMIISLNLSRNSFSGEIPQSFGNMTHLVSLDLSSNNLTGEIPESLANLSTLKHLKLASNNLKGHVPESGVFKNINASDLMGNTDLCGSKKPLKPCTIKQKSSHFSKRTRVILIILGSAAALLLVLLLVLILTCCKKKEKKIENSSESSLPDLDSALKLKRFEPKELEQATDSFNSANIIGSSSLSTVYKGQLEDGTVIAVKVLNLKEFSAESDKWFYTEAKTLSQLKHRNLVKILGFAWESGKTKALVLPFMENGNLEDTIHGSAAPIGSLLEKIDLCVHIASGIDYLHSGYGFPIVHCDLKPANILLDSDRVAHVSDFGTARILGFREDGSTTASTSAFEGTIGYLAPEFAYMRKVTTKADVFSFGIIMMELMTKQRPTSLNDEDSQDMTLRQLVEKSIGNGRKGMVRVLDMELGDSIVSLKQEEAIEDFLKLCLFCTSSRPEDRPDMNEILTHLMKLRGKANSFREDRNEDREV

Assays:
[1] = target: XBAT34-cYFP (Arabidopsis) (UniProt Q9FPH0); assay: split reporter
[2] = target: VPS28-2-cYFP (Arabidopsis) (UniProt Q9S9T7); assay: split reporter
[3] = target: XBAT35.1-cYFP (Arabidopsis) (UniProt Q4FE47); assay: split reporter
[4] = target: T1, VPS37-1-cYFP (Arabidopsis) (UniProt Q9SCP9); assay: split reporter
T1 sequence: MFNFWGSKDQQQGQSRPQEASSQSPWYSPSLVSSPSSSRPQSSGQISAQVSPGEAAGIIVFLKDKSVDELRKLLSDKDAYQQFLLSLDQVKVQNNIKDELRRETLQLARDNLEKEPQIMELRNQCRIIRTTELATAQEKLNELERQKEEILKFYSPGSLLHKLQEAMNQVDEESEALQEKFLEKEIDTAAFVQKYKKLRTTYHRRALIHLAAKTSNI

[5] = target: UBC13A (AtUBC35), two-hybrid fusion (Arabidopsis) (UniProt Q94A97); assay: two-hybrid
[6] = target: T2, UBC13B (AtUBC36), two-hybrid fusion (Arabidopsis) (UniProt Q9FZ48); assay: two-hybrid
T2 sequence: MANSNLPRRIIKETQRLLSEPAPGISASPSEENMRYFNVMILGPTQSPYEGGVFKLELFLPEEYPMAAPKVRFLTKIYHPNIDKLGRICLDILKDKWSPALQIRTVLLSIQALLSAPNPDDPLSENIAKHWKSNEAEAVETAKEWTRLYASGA

[7] = target: FLS2-nYFP (Arabidopsis) (UniProt Q9FL28); assay: split reporter

Molecule	binding [1]	binding [3]	binding [5]	binding [6]	binding [7]	other results
FLS2-nYFP (from UniProt Q9FL28 24-1173) (receptor)	no binding	no binding				binding [2]: binds; binding [4]: binds
XBAT34, two-hybrid fusion (from UniProt Q9FPH0 1-376) (enzyme)			binds weakly	binds weakly		
XBAT35.1, two-hybrid fusion (from UniProt Q4FE47 1-462) (enzyme)			binds	binds		
DRP1A-cYFP (protein, UniProt P42697 1-610) MENLISLVNKIQRACTALGDHGDSSALPTLWDSLPAIAVVGGQSSGKSSVLESIVGKDFLPRGSGIVTRRPLVLQLQKIDDGTREYAEFLHLPRKKFTDFAAVRKEIQDETDRETGRSKAISSVPIHLSIYSPNVVNLTLIDLPGLTKVAVDGQSDSIVKDIENMVRSYIEKPNCIILAISPANQDLATSDAIKISREVDPSGDRTFGVLTKIDLMDKGTDAVEILEGRSFKLKYPWVGVVNRSQADINKNVDMIAARKREREYFSNTTEYRHLANKMGSEHLAKMLSKHLERVIKSRIPGIQSLINKTVLELETELSRLGKPIAADAGGKLYSIMEICRLFDQIFKEHLDGVRAGGEKVYNVFDNQLPAALKRLQFDKQLAMDNIRKLVTEADGYQPHLIAPEQGYRRLIESSIVSIRGPAEASVDTVHAILKDLVHKSVNETVELKQYPALRVEVTNAAIESLDKMREGSKKATLQLVDMECSYLTVDFFRKLPQDVEKGGNPTHSIFDRYNDSYLRRIGSNVLSYVNMVCAGLRNSIPKSIVYCQVREAKRSLLDHFFAELGTMDMKRLSSLLNEDPAIMERRSAISKRLELYRAAQSEIDAVAWSK					binds	
DRP2B-cYFP (protein, UniProt Q9LQ55 1-920) MEAIDELSQLSDSMRQAASLLADEDPDETSSSRRPATSLNVVALGNVGAGKSAVLNSLIGHPVLPTGENGATRAPIIIDLSREESLSSKAIILQIDNKNQQVSASALRHSLQDRLSKGASGRGRDEIYLKLRTSTAPPLKLIDLPGLDQRIVDDSMIGEHAQHNDAILLVVVPASQASEISSSRALKIAKEYDPESTRTVGIISKIDQAAENPKSLAAVQALLSNQGPPKTTDIPWVALIGQSVSIASAQSGGSENSLETAWRAESESLKSILTGAPQSKLGRIALVDTLASQIRSRMKLRLPNILTGLQGKSQIVQDELARLGEQLVSSAEGTRAIALELCREFEDKFLLHLAGGEGSGWKVVASFEGNFPNRIKKLPLDRHFDLNNVKRIVLEADGYQPYLISPEKGLRSLIKTVLELAKDPARLCVDEVHRVLVDIVSASANATPGLGRYPPFKREVVAIASAALDGFKNEAKKMVVALVDMERAFVPPQHFIRLVQRRMERQRREEELKGRSSKKGQDAEQSLLNRATSPQPDGPSSTGGSLKSLRDKLMPQDKDKDKEKETPEVSGLKTAGPEGEITAGYLMKKSAKTNGWSRRWFVLNEKTGKLGYTKKQEERNFRGTVTLEECSIEEISDDEGEKSKSSKDKKSNGPDSKGPGLVFKITCRVPYKTVLKAHNALVLKAESMVDKNEWINKLQKVIQARGGQVGSASMRQSLSEGSLDKMVRKPVDPEEELRWMSQEVRGYVEAVLNSLAANVPKAVVLCQVEKSKEDMLNQLYSSISAIGNERIESLIQEDQNVKRRRDRYQKQSSLLSKLTRQLSIHDNRAAAASSWSDNSGTESSPRTNGGSSGEDWMNAFNAAASGPDSLKRYGSGGHSRRYSDPAQNGEDSSGSGGSSRRTTPNRLPPAPPQSGSSYRY					binds	
BAK1-nYFP (receptor, UniProt Q94F62 26-615) NAEGDALSALKNSLADPNKVLQSWDATLVTPCTWFHVTCNSDNSVTRVDLGNANLSGQLVMQLGQLPNLQYLELYSNNITGTIPEQLGNLTELVSLDLYLNNLSGPIPSTLGRLKKLRFLRLNNNSLSGEIPRSLTAVLTLQVLDLSNNPLTGDIPVNGSFSLFTPISFANTKLTPLPASPPPPISPTPPSPAGSNRITGAIAGGVAAGAALLFAVPAIALAWWRRKKPQDHFFDVPAEEDPEVHLGQLKRFSLRELQVASDNFSNKNILGRGGFGKVYKGRLADGTLVAVKRLKEERTQGGELQFQTEVEMISMAVHRNLLRLRGFCMTPTERLLVYPYMANGSVASCLRERPESQPPLDWPKRQRIALGSARGLAYLHDHCDPKIIHRDVKAANILLDEEFEAVVGDFGLAKLMDYKDTHVTTAVRGTIGHIAPEYLSTGKSSEKTDVFGYGVMLLELITGQRAFDLARLANDDDVMLLDWVKGLLKEKKLEALVDVDLQGNYKDEEVEQLIQVALLCTQSSPMERPKMSEVVRMLEGDGLAERWEEWQKEEMFRQDFNYPTHHPAVSGWIIGDSTSQIENEYPSGPR	no binding	no binding				
